Results deposited as PubChem BioAssay AID504764 (Drosophila RNAi Screening Center, 2011).
The deposit covers about 22,000 reagents; this is a random part of those that have a named target and a result. In the full data, 403 (1.9%) got an active call. 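Unnormalised raw counts per well; ratio z-scores behind the hit calls and whether each hit raises or lowers signal are not deposited.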 Entries without a mark were called inactive. Reagents against one gene are numbered here. Not stated in the record: the amount of reagent.

Test: 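Genes whose knock-down alters Notch-dependent transcription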 (primary screen)
System: Drosophila Kc167 cells
Reagents: long dsRNA against Drosophila genes
Duration: about 5 days (4 days dsRNA, then 24 h after transfection)
Treatment: transfection of constitutively active membrane-tethered Notch lacking the extracellular domain, read 24 h later
Detection: 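Firefly luciferase from an E(spl)m3 reporter with active Notch, plus control-promoter and uninduced reporter wells for normalisation; unnormalised counts, duplicate wells a and b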
Reading the numbers: induced reporter light, run 1, well a and induced reporter light, run 1, well b: higher = more light from the Notch target reporter with active Notch; control promoter light, run 1, well a and control promoter light, run 1, well b: higher = more light from the viral control promoter (cell number, transfection, viability); uninduced reporter light, run 1, well a: higher = more light from the Notch target reporter without active Notch
Rule for the call: 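Wells with low control signal or poorly matching duplicates excluded; duplicates averaged; per source plate, z beyond ±2 for induced/control log2 ratio or beyond ±1.8 for induced/uninduced marks a hit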
Calls: active = modifier hit (raised or lowered Notch signal); inactive = not a hit

PIG-S #1 → induced reporter light, run 1, well a: 1.77e5; induced reporter light, run 1, well b: 2.03e5; control promoter light, run 1, well a: 2.72e5; control promoter light, run 1, well b: 2.35e5; uninduced reporter light, run 1, well a: 14530
PIG-S #2 → induced reporter light, run 1, well a: 1.70e5; induced reporter light, run 1, well b: 2.00e5; control promoter light, run 1, well a: 1.98e5; control promoter light, run 1, well b: 1.93e5; uninduced reporter light, run 1, well a: 13815
PIG-S #3 → induced reporter light, run 1, well a: 1.85e5; induced reporter light, run 1, well b: 1.99e5; control promoter light, run 1, well a: 2.00e5; control promoter light, run 1, well b: 2.19e5; uninduced reporter light, run 1, well a: 13170
CG12017 → induced reporter light, run 1, well a: 1.24e5; induced reporter light, run 1, well b: 1.60e5; control promoter light, run 1, well a: 1.67e5; control promoter light, run 1, well b: 1.82e5; uninduced reporter light, run 1, well a: 6355
CG32081 → induced reporter light, run 1, well a: 1.78e5; induced reporter light, run 1, well b: 2.28e5; control promoter light, run 1, well a: 2.72e5; control promoter light, run 1, well b: 3.02e5; uninduced reporter light, run 1, well a: 13960
trbd → induced reporter light, run 1, well a: 1.09e5; induced reporter light, run 1, well b: 1.00e5; control promoter light, run 1, well a: 65250; control promoter light, run 1, well b: 62230; uninduced reporter light, run 1, well a: 7955
FoxL1 → induced reporter light, run 1, well a: 1.03e5; induced reporter light, run 1, well b: 1.22e5; control promoter light, run 1, well a: 1.30e5; control promoter light, run 1, well b: 1.50e5; uninduced reporter light, run 1, well a: 5820
dpr9 #1 → induced reporter light, run 1, well a: 1.54e5; induced reporter light, run 1, well b: 1.62e5; control promoter light, run 1, well a: 1.40e5; control promoter light, run 1, well b: 1.40e5; uninduced reporter light, run 1, well a: 13082
dpr9 #2 → induced reporter light, run 1, well a: 2.14e5; induced reporter light, run 1, well b: 2.11e5; control promoter light, run 1, well a: 1.49e5; control promoter light, run 1, well b: 1.57e5; uninduced reporter light, run 1, well a: 16370
dpr9 #3 → induced reporter light, run 1, well a: 2.12e5; induced reporter light, run 1, well b: 1.87e5; control promoter light, run 1, well a: 1.72e5; control promoter light, run 1, well b: 1.74e5; uninduced reporter light, run 1, well a: 14750
CG7300 → induced reporter light, run 1, well a: 2.47e5; induced reporter light, run 1, well b: 3.05e5; control promoter light, run 1, well a: 2.11e5; control promoter light, run 1, well b: 2.70e5; uninduced reporter light, run 1, well a: 21665
CG5913 → induced reporter light, run 1, well a: 1.81e5; induced reporter light, run 1, well b: 1.83e5; control promoter light, run 1, well a: 1.96e5; control promoter light, run 1, well b: 2.13e5; uninduced reporter light, run 1, well a: 13425
Pka-C1 → induced reporter light, run 1, well a: 2.11e5; induced reporter light, run 1, well b: 2.07e5; control promoter light, run 1, well a: 1.70e5; control promoter light, run 1, well b: 1.78e5; uninduced reporter light, run 1, well a: 16605
l(1)G0469 #1 → induced reporter light, run 1, well a: 1.92e5; induced reporter light, run 1, well b: 1.99e5; control promoter light, run 1, well a: 2.66e5; control promoter light, run 1, well b: 2.61e5; uninduced reporter light, run 1, well a: 14410
l(1)G0469 #2 → induced reporter light, run 1, well a: 81785; induced reporter light, run 1, well b: 70630; control promoter light, run 1, well a: 90645; control promoter light, run 1, well b: 75140; uninduced reporter light, run 1, well a: 11185
Shawl #1 → induced reporter light, run 1, well a: 1.20e5; induced reporter light, run 1, well b: 1.62e5; control promoter light, run 1, well a: 58090; control promoter light, run 1, well b: 99460; uninduced reporter light, run 1, well a: 18565
Shawl #2 → induced reporter light, run 1, well a: 1.34e5; induced reporter light, run 1, well b: 1.52e5; control promoter light, run 1, well a: 78695; control promoter light, run 1, well b: 1.11e5; uninduced reporter light, run 1, well a: 18560
mle → induced reporter light, run 1, well a: 1.85e5; induced reporter light, run 1, well b: 1.66e5; control promoter light, run 1, well a: 2.00e5; control promoter light, run 1, well b: 1.82e5; uninduced reporter light, run 1, well a: 12792

2 entries from above, set out differently.
| Target gene | dsRNA no. | induced reporter light, run 1, well a | induced reporter light, run 1, well b | control promoter light, run 1, well a | control promoter light, run 1, well b | uninduced reporter light, run 1, well a |
| --- | --- | --- | --- | --- | --- | --- |
| FoxL1 | 1 | 1.03e5 | 1.22e5 | 1.30e5 | 1.50e5 | 5820 |
| dpr9 | 1 | 1.54e5 | 1.62e5 | 1.40e5 | 1.40e5 | 13082 |
